Results are given in words; binding and its absence hold for the method and conditions named. A result given as binding can be weak or reduced; the word gives no strength.
Assays:
Assay in all cases: two-hybrid; systematic array-based yeast two-hybrid screen of the T. pallidum proteome; baits in pAS1-loxP or pLP-GBKT7Amp against arrayed preys in pLP-GADT7
[1] = target: TP0965 (Treponema pallidum) (UniProt O83931)
[2] = target: T1, (anti-) termination protein NusA (Treponema pallidum) (UniProt O83862)
T1 sequence: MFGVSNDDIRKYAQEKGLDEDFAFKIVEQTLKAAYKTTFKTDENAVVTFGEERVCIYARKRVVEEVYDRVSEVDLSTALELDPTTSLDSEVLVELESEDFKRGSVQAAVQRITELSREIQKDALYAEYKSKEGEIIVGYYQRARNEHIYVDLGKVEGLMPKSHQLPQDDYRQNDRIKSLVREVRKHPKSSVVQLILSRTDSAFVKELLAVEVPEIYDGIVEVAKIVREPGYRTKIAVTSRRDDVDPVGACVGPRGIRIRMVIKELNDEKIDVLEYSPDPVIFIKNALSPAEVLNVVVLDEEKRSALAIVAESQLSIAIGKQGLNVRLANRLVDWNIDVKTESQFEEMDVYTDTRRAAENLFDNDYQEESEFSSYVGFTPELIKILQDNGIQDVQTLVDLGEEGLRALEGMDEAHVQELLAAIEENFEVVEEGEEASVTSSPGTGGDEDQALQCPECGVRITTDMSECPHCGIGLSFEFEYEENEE

[3] = target: T2, replication helicase DnaB (Treponema pallidum) (UniProt O83097)
T2 sequence: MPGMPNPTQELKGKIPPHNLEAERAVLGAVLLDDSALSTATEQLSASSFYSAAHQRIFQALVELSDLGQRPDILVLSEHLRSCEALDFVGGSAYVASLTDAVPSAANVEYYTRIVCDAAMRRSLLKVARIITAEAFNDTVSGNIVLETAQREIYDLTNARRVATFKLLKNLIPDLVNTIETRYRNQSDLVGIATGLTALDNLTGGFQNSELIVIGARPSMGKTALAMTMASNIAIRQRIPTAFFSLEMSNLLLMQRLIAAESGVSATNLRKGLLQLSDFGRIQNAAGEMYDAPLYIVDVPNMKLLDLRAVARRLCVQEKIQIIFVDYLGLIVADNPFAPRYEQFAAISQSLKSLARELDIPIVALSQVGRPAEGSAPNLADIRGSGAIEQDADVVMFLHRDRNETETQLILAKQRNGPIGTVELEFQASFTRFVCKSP

[4] = target: T3, recX (Treponema pallidum) (UniProt B2S4R0)
T3 sequence: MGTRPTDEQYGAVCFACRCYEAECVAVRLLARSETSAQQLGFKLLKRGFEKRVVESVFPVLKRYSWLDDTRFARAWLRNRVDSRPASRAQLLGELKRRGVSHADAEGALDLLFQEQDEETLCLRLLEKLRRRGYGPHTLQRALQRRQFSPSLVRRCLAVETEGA

[5] = target: T4, DNA primase (DnaG) (Treponema pallidum) (UniProt O83505)
T4 sequence: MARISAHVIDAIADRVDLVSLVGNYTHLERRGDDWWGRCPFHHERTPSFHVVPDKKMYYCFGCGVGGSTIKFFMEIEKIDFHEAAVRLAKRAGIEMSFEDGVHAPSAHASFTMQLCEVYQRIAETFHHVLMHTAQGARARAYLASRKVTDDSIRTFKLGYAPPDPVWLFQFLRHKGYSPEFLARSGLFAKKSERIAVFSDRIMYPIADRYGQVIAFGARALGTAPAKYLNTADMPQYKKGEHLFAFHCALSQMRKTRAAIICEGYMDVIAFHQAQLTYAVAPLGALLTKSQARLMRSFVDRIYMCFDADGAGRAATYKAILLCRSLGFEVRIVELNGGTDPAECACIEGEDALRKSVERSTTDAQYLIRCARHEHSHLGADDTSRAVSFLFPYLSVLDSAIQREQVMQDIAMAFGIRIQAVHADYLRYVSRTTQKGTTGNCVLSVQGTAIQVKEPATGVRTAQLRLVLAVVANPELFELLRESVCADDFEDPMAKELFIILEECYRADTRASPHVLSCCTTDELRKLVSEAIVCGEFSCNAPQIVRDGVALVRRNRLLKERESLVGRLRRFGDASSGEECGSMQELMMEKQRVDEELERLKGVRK

[6] = target: DNA repair helicase TP0380 (Treponema pallidum) (UniProt O83395)
[7] = target: exonuclease for dsDNA (Treponema pallidum)

TP0963 (from UniProt O83929)
binding [1]: binds

RNA helicase HrpA (from UniProt O83538)
binding [2]: binds

TP0050 (from UniProt O83089)
binding [3]: binds

TP0443 (from UniProt O83457)
binding [4]: binds

TP0496 (from UniProt O83509)
binding [5]: binds

B1: TP0183 (protein, UniProt O83213 1-281)
chain: MKKGVRSSRLLILFVLFAHAVHAAPRVGVYRLEVSGVPAHTETTINDALFSFIRELRGYHVVDCREQAVPHRFPEKGNLDYIFCGAMDLTPEGIRLAVALKGKDHNATRLLSKTYETAARILLDSRHLVRDVFDRSVPLTGNQTETSSMRHTRAGEESVSSLDALAGSWHSTEEGERIVIVSEGRGIAVLRSGLSVPLKLKISDGVLVVSQKGAVNARQFSHFPPEIAQKLAQEARPLQWRFPKISGNNRLSGVRTAPVVRGAGHTASVEYEEVPEEWVRN
binding [6]: binds

B2: TP0320 (protein, UniProt O83340 1-51)
chain: MPPVPARGRPSSSSDFCLYGMAVVNGFCVQDIPYGSRVVLPGRMRSSSAGA
binding [7]: binds

From article PMC2386257
